# Measured values taken from article PMC7384856.
# No constants are given. Whether binding was seen depends on the method and setting. In cells and extracts the contact can be indirect. Some results given as binding are weak or reduced against the parent protein; the word gives no strength.
# T1: Cup (D. melanogaster (endogenous in embryos)) (UniProt Q9VMA3)
# T1 sequence: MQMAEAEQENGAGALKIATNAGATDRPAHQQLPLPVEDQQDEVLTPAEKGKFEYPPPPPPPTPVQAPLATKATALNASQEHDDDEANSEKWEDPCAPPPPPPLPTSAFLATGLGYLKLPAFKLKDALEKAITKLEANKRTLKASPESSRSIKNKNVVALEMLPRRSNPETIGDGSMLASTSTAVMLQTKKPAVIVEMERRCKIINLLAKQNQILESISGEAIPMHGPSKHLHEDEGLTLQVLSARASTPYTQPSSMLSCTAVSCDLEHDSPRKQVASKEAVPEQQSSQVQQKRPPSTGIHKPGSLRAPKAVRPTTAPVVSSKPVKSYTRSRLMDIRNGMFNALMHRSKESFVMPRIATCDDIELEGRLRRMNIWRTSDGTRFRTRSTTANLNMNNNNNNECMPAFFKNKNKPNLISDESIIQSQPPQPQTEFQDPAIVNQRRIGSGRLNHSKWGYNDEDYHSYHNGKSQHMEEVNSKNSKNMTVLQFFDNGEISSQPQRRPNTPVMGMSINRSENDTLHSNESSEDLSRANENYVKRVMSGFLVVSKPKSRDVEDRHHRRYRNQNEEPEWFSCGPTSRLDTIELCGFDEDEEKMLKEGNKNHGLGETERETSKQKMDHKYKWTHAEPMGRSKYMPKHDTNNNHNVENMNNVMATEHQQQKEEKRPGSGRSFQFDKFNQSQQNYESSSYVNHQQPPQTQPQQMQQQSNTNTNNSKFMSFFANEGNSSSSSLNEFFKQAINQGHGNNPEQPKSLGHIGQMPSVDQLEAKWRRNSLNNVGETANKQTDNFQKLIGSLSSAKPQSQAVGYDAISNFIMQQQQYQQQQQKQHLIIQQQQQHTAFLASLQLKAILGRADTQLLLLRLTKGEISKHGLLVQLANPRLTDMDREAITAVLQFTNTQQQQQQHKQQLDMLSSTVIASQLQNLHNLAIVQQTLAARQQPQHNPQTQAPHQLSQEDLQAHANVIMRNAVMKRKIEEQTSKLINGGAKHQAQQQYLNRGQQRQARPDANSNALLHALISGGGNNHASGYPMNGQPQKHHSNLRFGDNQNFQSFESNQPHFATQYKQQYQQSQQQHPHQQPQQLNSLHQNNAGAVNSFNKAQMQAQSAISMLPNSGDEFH
# Biological target: T1, Cup (D. melanogaster (endogenous in embryos))
# Assay: co-IP; 1-2 hr embryo lysates diluted to 1.0 mg/ml in lysis buffer B (150 mM KCl, 20 mM HEPES-KOH pH 7.4, 1 mM MgCl2, 1 mM DTT), α-GFP, α-Cup or IgG, protein G beads, 4°C; western blot with α-RanBPM; embryos wild-type, png^50, or with mCherry, RanBPM, Muskelin, Souji or Kdo knocked down
binder,measurement,value
"RanBPM (protein, UniProt Q4Z8K6 1-962) MENVEEAPPLSSESNSNSNNSSASSSSHQLSQSGAMGAEIAPSTSRSHSHSPTPSPPVPASSHDQPHPDHPSPPLNASETEARENSPHDHSPTPTFHQTAPPPTTSSTAPQRDEREQQQQQEAPPLQQDQQENSPAQDQELHPLLDQQNQEYPAVHQDQQAEQNQELHHIEGLIRHRESQNPEEHPPQASLENRETLGREDTNQEPDEPQVRDPEIEPEAEPPPPLLLEDLDEQDSGSQDLNEQQPPLIIDANAIAETIDANAVERIDDYEDDDEEVDEEEEVVEDRVDRAGEVASVSGAQRLHSVAVLPRYSSASRAPRSSNNNNNNISNHNNNNNNSNSNSLSRRTRHFYSNNGSHFSNDMFPSHNPRSSTQTSSPRVGGRRHHSTPAASSNSPQHQGVDPLRLLYPNVNESETPLPRCWSPHDKCLSIGLSQNNLRVTYKGVGKQHSDAASVRTAYPIPSSCGLYYFEVRIISKGRNGYMGIGLTAQQFRMNRLPGWDKQSYGYHGDDGNSFSSSGNGQTYGPTFTTGDVIGCCVNFVNNTCFYTKNGVDLGIAFRDLPTKLYPTVGLQTPGEEVDANFGQEPFKFDKIVDMMKEMRSNVLRKIDRYPHLLETPENLMNRLVSTYLVHNAFSKTAEAFNGYTNQTFNEDLASIKTRQKIIKLILTGKMSQAIEHTLRSFPGLLENNKNLWFALKCRQFIEMINGADIENVNNKVTATTQTMPTNQTSVIQSTKTFKHSKSGSGNGNVNINQTQQQNNTAIPAVIKPQGGDRPDIKNMLVDDNSNKCVEHDSNSMDVEMEPCQSHSNGGDSSSNGNASAVRNSLDAIDEEMDVDVSPSSRNCGRVIEKILEFGKELSSMGQQLEKENLMTEEERQMLEDAFSLIAYSNPWSSPLGWLLCPSRRESVSTTLNSAILESLNFERRPPLEYLVAHASELIKVIGQHSLGEDAFITIDDVFPQN",binding,binds
